Drawing on publication PMC12695660, “Genome-scale CRISPR screens identify PTGES3 as a direct modulator of androgen receptor function in advanced prostate cancer”, this text covers binding for one molecule.

No constants are given. Whether binding was seen depends on the method and setting. Binding can be weak; no strength is given. Sequences can lack the tags named with a protein.

This experiment addresses AR_(ΔNTD), recombinant mouse AR lacking the N-terminal domain (mouse). Kind of experiment: mass photometry; Refeyn TwoMP; proteins at 5 uM incubated on ice for 30 min in DNA binding buffer in the presence or absence of ARE DNA, flash diluted into PBS to 10 nM; both purified.

B1: Smt3-tagged full-length human PTGES3 (protein, UniProt Q15185 1-160)
chain: MQPASAKWYDRRDYVFIEFCVEDSKDVNVNFEKSKLTFSCLGGSDNFKHLNEIDLFHCIDPNDSKHKRTDRSILCCLRKGESGQSWPRLTKERAKLNWLSVDFNNWKDWEDDSDEDMSNFDRFSEMMNNMGGDEDVDLPEVDGADDDSQDSDDEKMPDLE
With B1, the binding result is on record as “binds”.
